Source: PMC6057013
No constants are given. Whether binding was seen depends on the method and setting. Binding seen in cells or lysates may run through a third protein. Some binding calls cover weakened binding; strength is not graded here. For part of these data: Tags and fused reporters may be left off the sequences shown.

Amino acid sequences for entries named in this document (tags omitted).
UniProt P35222: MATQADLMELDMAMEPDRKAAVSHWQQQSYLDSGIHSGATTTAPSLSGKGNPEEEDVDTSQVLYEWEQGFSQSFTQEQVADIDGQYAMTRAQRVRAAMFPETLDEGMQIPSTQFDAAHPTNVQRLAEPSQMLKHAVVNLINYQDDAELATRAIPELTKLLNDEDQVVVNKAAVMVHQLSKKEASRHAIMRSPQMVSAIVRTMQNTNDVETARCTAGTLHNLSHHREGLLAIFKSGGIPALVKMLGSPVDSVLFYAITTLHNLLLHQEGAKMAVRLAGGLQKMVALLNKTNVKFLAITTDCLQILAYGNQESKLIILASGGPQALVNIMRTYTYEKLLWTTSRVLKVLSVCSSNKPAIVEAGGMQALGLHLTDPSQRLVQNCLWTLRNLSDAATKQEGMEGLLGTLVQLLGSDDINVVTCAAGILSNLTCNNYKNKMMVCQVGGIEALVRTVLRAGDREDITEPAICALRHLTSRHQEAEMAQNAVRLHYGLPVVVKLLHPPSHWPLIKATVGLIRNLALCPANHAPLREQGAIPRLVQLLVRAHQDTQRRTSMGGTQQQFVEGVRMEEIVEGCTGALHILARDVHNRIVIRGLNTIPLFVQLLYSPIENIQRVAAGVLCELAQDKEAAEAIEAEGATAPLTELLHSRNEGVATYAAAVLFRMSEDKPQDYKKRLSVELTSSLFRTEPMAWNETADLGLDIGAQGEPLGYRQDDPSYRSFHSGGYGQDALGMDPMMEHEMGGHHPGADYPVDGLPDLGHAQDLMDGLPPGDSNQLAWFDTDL

Tests used:
[1] = biological target: T1, endogenous Hakai (human (endogenous in BEL7402)) (UniProt Q75N03); test: co-IP; endogenous proteins; BEL7402 cells grown in 10 cm^2 dishes, cell lysates subjected to IP
T1 sequence: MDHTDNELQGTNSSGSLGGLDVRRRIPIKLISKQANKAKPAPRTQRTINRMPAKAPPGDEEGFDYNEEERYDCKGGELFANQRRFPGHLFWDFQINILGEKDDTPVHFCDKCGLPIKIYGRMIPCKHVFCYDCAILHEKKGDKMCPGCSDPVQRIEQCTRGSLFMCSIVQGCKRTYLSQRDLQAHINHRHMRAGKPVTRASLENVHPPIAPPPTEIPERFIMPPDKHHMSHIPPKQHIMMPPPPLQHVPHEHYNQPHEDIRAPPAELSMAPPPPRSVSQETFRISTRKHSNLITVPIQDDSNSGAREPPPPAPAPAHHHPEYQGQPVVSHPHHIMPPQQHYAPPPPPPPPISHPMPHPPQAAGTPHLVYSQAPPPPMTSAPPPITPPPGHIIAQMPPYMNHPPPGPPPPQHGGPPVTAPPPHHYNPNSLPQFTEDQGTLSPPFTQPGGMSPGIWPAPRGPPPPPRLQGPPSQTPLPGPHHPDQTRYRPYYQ

[2] = biological target: endogenous β-catenin (human (endogenous in BEL7402)) (UniProt P35222); test: co-IP; BEL7402 cells transfected with wild-type Hakai or its deletion mutants; endogenous β-catenin
GFP-tagged β-Catenin = GFP-tagged β-Catenin (UniProt P35222); test: co-IP; 293T cells transfected with tagged constructs; cell lysates immunoprecipitated with anti-Myc-tag or anti-GFP-tag antibody and immunoblotted

“endogenous β-catenin (from UniProt P35222 1-781)” was tested, and the binding [1] was “binds”.

B1: wild-type Hakai (WT), transfected in BEL7402 cells (protein, UniProt Q75N03 1-491)
chain: MDHTDNELQGTNSSGSLGGLDVRRRIPIKLISKQANKAKPAPRTQRTINRMPAKAPPGDEEGFDYNEEERYDCKGGELFANQRRFPGHLFWDFQINILGEKDDTPVHFCDKCGLPIKIYGRMIPCKHVFCYDCAILHEKKGDKMCPGCSDPVQRIEQCTRGSLFMCSIVQGCKRTYLSQRDLQAHINHRHMRAGKPVTRASLENVHPPIAPPPTEIPERFIMPPDKHHMSHIPPKQHIMMPPPPLQHVPHEHYNQPHEDIRAPPAELSMAPPPPRSVSQETFRISTRKHSNLITVPIQDDSNSGAREPPPPAPAPAHHHPEYQGQPVVSHPHHIMPPQQHYAPPPPPPPPISHPMPHPPQAAGTPHLVYSQAPPPPMTSAPPPITPPPGHIIAQMPPYMNHPPPGPPPPQHGGPPVTAPPPHHYNPNSLPQFTEDQGTLSPPFTQPGGMSPGIWPAPRGPPPPPRLQGPPSQTPLPGPHHPDQTRYRPYYQ
With B1 the binding [2] was “binds”.

B2: Myc-tagged Hakai (protein, UniProt Q75N03 1-491)
chain: MDHTDNELQGTNSSGSLGGLDVRRRIPIKLISKQANKAKPAPRTQRTINRMPAKAPPGDEEGFDYNEEERYDCKGGELFANQRRFPGHLFWDFQINILGEKDDTPVHFCDKCGLPIKIYGRMIPCKHVFCYDCAILHEKKGDKMCPGCSDPVQRIEQCTRGSLFMCSIVQGCKRTYLSQRDLQAHINHRHMRAGKPVTRASLENVHPPIAPPPTEIPERFIMPPDKHHMSHIPPKQHIMMPPPPLQHVPHEHYNQPHEDIRAPPAELSMAPPPPRSVSQETFRISTRKHSNLITVPIQDDSNSGAREPPPPAPAPAHHHPEYQGQPVVSHPHHIMPPQQHYAPPPPPPPPISHPMPHPPQAAGTPHLVYSQAPPPPMTSAPPPITPPPGHIIAQMPPYMNHPPPGPPPPQHGGPPVTAPPPHHYNPNSLPQFTEDQGTLSPPFTQPGGMSPGIWPAPRGPPPPPRLQGPPSQTPLPGPHHPDQTRYRPYYQ
In the case of B2, the binding (GFP-tagged β-Catenin) is reported as “binds”.
